Results from paper PMC4288178, “CRISPR RNA binding and DNA target recognition by purified Cascade complexes from Escherichia coli”.

T1: Cse1 (CasA) (E. coli) (UniProt Q46901)
T1 sequence: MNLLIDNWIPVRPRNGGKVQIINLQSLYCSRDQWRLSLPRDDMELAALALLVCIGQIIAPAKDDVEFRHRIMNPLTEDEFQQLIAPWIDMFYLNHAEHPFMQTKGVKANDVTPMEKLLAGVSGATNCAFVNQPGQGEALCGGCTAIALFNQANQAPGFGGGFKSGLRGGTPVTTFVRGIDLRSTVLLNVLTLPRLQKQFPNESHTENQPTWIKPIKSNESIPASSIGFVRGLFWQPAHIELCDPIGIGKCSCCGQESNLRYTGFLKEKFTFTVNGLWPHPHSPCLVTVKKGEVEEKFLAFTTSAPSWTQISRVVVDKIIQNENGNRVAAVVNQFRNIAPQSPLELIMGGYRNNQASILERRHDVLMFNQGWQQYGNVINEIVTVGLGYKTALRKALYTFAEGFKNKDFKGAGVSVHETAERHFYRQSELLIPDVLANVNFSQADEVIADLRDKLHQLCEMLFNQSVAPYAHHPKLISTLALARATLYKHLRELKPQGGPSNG


What was measured:
[1] = biological target: T1, Cse1 (CasA) (E. coli); test: affinity purification with mass spectrometry; Cascade-: casABCDE operon expressed in E. coli with deleted CRISPR cassette and without the crRNA plasmid pWUR615; N-terminal 6His-Cse1 held on a nickel-affinity column; same protocol; read by SDS-PAGE and LC-MS
[2] = biological target: T1, Cse1 (CasA) (E. coli); test: affinity purification with mass spectrometry; Cascade+: casABCDE operon co-expressed with g8 crRNA (pWUR615) in E. coli; N-terminal 6His-Cse1 held on a nickel-affinity column; 50 mM HEPES-K pH 7.5, 300 mM NaCl, 5% glycerol, 0-150 mM imidazole; fractions read by SDS-PAGE and in-gel trypsin digestion with LC-MS

Row | binding [1] | binding [2] | Binder
1 | binds | binds | Cse2 (CasB) (protein, UniProt P76632 1-160) MADEIDAMALYRAWQQLDNGSCAQIRRVSEPDELRDIPAFYRLVQPFGWENPRHQQALLRMVFCLSAGKNVIRHQDKKSEQTTGISLGRALANSGRINERRIFQLIRADRTADMVQLRRLLTHAEPVLDWPLMARMLTWWGKRERQQLLEDFVLTTNKNA
2 | binds | binds | Cas7 (CasC) (protein, UniProt Q46899 1-363) MSNFINIHVLISHSPSCLNRDDMNMQKDAIFGGKRRVRISSQSLKRAMRKSGYYAQNIGESSLRTIHLAQLRDVLRQKLGERFDQKIIDKTLALLSGKSVDEAEKISADAVTPWVVGEIAWFCEQVAKAEADNLDDKKLLKVLKEDIAAIRVNLQQGVDIALSGRMATSGMMTELGKVDGAMSIAHAITTHQVDSDIDWFTAVDDLQEQGSAHLGTQEFSSGVFYRYANINLAQLQENLGGASREQALEIATHVVHMLATEVPGAKQRTYAAFNPADMVMVNFSDMPLSMANAFEKAVKAKDGFLQPSIQAFNQYWDRVANGYGLNGAAAQFSLSDVDPITAQVKQMPTLEQLKSWVRNNGEA
3 | binds | binds | Cas6e (CasE) (enzyme, UniProt Q46897 1-199) MYLSKVIIARAWSRDLYQLHQGLWHLFPNRPDAARDFLFHVEKRNTPEGCHVLLQSAQMPVSTAVATVIKTKQVEFQLQVGVPLYFRLRANPIKTILDNQKRLDSKGNIKRCRVPLIKEAEQIAWLQRKLGNAARVEDVHPISERPQYFSGDGKSGKIQTVCFEGVLTINDAPALIDLVQQGIGPAKSMGCGLLSLAPL

No constants are given. Whether binding was seen depends on the method and setting. Binding seen in cells or lysates may run through a third protein. Here binding means that the protein was enriched with, or labelled near, the bait; the list need not be complete.
